According to US20200331965A1 (EMORY UNIVERSITY, published 2020):
These are yes or no findings as the source states them, for the method shown. In cells and extracts the contact can be indirect. Some entries that bind do so weakly or less than the wild type.

Biological target: T1, native claudin-5 (rat alveolar epithelial cells) (rat) (UniProt Q9JKD6)
T1 sequence (looked up): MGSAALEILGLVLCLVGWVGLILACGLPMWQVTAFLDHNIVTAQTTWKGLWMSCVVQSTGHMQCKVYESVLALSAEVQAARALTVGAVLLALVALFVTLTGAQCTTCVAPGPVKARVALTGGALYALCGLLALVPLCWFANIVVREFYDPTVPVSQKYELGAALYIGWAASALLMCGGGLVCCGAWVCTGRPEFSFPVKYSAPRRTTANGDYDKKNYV
Test: co-immunopurification from rat AECs

- binding: binds
B1: native claudin-4 (rat alveolar epithelial cells) (protein)
chain: MASMGLQVLGISLAVLGWLGVILSCSLPMWRVTAFIGSNIVTAQTSWEGLWMNCVVQSTGQMQCKMYDSMLALPQDLQAARALMVISIIVGALGMLLSVVGGKCTNCMEDETVKAKVMITAGAVFIVASMLIMVPVSWTAHNVIRDFYNPLVASGQKREMGASLYIGWAASGLLLLGGGLLCCNCPPRRNEKPYSAKYSAARSVPASNYV
